From PubChem BioAssay AID602141 (Sanford-Burnham Center for Chemical Genomics, 2011)
The list shows a part of the results, in another mix than the full data. The source made the active and inactive calls.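 The calls were made as follows: active = corrected activity change at or below -50% at 5 µM; inactive = the rest.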

Assay: cytotoxicity in KKLEB CF airway cells, primary screen, cytotoxicity control for CF NF-kB inhibitor project, cell-based, uHTS, fluorescence assay plates (AID 602141)
Conditions: KKLEB CF airway cells viability, ATPlite luminescence, overnight; at 5 µM; stronger effect = lower value; cells stimulated with P. aeruginosa culture filtrate
For `CN1CCN(C(=O)COc2ccc(-c3nc4ccccc4s3)cc2)CC1`, the activity change (cytotoxicity) was active: -76.1%.
